Data reported in the supplement of paper PMC10060354, “Discovery of a small molecule ligand of FRS2 that inhibits invasion and tumor growth” (Cellular Oncology, 2022).
Repeats are few or missing, and single values can be far off.

Protein sequences, listed by entry. Tags and fused reporters are not part of them. Lines headed by an entry give the natural chain unless they say otherwise; changes in a name come on top.
UniProt P35613: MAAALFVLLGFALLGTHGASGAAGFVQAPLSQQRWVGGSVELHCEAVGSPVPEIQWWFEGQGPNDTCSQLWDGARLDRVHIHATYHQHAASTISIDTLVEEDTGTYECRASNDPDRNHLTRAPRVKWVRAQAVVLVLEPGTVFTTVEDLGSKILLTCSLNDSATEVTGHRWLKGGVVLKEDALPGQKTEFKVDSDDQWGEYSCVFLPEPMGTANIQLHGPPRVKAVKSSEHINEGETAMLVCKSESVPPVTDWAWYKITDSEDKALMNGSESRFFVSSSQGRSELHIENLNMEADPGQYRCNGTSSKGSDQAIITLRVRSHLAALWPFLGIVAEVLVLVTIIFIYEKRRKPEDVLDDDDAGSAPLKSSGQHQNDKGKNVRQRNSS
UniProt Q96FF9: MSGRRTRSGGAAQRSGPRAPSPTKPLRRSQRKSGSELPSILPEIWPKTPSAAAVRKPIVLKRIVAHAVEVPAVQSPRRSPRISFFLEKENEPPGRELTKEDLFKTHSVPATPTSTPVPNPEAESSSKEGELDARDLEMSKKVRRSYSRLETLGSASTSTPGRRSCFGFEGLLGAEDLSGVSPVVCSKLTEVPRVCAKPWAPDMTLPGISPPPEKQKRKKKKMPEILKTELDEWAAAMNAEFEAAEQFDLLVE
UniProt Q13889: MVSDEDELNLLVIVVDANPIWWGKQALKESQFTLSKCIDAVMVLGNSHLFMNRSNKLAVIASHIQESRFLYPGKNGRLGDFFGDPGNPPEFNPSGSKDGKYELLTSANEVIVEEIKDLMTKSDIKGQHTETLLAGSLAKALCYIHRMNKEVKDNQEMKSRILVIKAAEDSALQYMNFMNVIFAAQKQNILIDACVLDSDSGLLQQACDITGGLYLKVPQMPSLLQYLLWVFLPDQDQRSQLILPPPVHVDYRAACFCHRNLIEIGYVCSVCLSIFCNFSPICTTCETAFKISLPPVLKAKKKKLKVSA
UniProt Q99608: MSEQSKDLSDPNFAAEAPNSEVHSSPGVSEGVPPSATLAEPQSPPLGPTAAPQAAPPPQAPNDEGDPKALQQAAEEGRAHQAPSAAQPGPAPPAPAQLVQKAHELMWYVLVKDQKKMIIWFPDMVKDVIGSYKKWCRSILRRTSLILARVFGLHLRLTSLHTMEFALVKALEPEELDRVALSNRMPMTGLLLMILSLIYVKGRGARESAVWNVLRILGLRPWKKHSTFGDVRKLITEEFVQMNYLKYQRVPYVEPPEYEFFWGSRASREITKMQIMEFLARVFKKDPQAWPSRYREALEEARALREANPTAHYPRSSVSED
UniProt Q8WUF8: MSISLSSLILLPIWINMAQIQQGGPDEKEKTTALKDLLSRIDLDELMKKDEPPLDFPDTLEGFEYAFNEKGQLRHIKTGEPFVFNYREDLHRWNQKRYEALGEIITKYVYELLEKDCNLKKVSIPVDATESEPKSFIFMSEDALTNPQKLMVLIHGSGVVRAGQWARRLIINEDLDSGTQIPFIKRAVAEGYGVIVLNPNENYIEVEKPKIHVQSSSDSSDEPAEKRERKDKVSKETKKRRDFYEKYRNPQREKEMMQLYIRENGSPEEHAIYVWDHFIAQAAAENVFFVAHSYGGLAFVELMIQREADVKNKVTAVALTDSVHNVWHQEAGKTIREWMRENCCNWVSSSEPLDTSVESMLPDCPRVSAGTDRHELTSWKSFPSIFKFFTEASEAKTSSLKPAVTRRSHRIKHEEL
UniProt P19784, whole entry, looked up: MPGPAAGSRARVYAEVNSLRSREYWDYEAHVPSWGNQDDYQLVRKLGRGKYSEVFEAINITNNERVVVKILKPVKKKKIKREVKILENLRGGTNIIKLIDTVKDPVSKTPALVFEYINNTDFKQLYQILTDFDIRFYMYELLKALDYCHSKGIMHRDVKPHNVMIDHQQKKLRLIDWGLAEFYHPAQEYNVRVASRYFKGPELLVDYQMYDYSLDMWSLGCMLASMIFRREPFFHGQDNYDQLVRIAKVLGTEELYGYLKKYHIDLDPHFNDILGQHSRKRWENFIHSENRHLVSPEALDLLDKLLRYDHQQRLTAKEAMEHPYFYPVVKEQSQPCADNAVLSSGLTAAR
UniProt Q96AQ8: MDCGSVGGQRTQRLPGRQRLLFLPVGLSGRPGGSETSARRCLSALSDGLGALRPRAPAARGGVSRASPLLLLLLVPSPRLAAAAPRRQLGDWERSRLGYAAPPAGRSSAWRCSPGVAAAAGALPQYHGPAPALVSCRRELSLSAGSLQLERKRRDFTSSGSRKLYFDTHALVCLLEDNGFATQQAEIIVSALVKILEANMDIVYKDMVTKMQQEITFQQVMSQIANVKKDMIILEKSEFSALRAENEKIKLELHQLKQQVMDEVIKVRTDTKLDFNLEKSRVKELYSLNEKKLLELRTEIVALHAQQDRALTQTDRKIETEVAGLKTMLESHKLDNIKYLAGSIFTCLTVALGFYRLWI
UniProt Q16773: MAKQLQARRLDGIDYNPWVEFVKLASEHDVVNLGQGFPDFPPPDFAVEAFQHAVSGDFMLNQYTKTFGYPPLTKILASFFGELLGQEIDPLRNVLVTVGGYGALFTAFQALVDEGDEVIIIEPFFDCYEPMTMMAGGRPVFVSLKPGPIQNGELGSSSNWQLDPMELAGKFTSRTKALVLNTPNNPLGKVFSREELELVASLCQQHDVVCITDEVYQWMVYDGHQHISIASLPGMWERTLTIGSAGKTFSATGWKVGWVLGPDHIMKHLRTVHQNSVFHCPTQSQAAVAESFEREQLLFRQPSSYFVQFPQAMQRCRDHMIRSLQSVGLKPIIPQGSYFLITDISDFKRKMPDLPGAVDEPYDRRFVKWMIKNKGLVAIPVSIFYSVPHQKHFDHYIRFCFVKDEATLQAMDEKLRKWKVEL
UniProt Q10471: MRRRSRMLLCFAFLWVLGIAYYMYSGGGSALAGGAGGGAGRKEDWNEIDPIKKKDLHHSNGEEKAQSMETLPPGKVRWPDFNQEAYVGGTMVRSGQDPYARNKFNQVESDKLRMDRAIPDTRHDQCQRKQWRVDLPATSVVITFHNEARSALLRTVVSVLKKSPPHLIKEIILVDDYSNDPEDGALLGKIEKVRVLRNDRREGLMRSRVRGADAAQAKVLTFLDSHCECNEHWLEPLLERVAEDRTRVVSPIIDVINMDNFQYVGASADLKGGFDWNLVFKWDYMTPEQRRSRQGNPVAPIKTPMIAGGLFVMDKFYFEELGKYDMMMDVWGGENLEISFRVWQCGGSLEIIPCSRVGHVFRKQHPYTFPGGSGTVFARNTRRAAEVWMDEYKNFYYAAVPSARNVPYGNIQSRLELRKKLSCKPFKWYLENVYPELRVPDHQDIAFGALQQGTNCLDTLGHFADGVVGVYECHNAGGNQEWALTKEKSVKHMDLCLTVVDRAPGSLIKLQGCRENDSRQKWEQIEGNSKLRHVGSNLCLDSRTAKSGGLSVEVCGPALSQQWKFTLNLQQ
UniProt Q6IA86: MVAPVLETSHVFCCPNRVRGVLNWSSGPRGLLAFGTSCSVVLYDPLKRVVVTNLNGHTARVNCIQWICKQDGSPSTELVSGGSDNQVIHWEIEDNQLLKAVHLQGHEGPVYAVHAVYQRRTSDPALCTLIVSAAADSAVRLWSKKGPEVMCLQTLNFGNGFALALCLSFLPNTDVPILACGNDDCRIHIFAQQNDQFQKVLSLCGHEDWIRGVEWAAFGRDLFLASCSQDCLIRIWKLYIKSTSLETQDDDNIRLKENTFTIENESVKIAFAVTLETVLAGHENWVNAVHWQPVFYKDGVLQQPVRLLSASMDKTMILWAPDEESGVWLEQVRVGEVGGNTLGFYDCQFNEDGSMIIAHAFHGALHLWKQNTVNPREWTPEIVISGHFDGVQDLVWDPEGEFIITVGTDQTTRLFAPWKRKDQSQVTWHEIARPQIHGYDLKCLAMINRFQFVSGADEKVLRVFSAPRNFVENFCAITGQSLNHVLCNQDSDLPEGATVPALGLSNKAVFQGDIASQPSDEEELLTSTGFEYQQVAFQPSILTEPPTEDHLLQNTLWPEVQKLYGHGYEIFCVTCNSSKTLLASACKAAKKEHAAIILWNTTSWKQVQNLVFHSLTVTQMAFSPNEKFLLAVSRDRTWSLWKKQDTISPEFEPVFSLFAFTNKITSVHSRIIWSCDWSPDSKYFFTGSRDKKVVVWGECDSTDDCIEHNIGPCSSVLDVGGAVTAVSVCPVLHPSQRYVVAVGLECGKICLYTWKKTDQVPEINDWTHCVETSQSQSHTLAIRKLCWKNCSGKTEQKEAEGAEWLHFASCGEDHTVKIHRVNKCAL
UniProt Q99717: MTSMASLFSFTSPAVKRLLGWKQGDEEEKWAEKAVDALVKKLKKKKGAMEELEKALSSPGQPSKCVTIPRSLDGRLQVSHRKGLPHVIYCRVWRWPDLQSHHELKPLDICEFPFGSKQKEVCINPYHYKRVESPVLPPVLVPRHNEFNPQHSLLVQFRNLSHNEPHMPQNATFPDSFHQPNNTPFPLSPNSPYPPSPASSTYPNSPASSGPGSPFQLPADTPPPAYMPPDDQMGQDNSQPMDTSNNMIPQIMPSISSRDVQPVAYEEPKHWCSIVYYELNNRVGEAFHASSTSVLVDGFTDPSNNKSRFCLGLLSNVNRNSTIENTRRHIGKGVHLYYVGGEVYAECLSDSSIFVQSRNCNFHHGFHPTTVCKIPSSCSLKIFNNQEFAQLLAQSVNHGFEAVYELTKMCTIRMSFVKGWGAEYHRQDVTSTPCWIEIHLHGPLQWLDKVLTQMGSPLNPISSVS
UniProt Q9UBC2: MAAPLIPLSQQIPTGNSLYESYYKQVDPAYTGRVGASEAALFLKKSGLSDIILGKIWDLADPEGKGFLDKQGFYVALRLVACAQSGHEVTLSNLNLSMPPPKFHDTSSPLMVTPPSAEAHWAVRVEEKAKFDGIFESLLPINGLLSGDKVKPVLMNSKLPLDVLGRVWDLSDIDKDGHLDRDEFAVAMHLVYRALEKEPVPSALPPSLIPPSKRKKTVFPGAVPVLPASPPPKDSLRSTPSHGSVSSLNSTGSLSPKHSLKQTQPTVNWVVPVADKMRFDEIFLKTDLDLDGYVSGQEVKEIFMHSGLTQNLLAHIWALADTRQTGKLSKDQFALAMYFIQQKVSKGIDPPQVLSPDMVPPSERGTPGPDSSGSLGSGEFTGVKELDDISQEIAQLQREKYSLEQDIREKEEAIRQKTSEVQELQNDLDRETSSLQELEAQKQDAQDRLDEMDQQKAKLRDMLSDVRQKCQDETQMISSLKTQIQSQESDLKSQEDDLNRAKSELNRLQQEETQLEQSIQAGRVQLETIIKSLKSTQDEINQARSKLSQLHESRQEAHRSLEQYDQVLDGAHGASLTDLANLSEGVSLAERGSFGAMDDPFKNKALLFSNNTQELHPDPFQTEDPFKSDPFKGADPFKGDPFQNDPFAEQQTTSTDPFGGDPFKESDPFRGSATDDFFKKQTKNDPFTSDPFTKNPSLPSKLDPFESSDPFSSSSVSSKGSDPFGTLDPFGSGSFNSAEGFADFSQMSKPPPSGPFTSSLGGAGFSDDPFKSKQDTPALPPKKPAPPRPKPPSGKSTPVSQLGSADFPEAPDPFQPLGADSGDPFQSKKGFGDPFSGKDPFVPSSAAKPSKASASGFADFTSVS
UniProt Q6P4I2: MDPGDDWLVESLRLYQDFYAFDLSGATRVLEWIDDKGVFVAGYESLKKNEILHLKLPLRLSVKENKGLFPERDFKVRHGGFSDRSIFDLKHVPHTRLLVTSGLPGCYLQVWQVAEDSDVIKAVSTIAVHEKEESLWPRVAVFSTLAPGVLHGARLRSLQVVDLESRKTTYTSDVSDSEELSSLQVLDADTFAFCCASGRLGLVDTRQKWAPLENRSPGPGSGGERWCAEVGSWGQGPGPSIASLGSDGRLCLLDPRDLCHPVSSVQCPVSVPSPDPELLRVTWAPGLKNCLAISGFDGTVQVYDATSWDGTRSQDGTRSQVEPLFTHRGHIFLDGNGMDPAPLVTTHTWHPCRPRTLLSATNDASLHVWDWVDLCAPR
UniProt P41212: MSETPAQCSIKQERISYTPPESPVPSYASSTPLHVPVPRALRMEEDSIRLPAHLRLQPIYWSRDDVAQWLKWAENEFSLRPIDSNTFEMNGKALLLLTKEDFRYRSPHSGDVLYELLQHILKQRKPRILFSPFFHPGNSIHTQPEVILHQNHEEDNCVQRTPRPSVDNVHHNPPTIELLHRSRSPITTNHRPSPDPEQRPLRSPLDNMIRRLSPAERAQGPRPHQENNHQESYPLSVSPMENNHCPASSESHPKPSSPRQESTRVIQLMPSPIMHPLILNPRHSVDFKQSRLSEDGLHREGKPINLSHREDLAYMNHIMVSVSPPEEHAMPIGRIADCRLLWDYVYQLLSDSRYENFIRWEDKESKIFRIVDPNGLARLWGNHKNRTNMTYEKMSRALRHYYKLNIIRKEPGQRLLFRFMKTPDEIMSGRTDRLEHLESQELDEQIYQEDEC
UniProt P17081: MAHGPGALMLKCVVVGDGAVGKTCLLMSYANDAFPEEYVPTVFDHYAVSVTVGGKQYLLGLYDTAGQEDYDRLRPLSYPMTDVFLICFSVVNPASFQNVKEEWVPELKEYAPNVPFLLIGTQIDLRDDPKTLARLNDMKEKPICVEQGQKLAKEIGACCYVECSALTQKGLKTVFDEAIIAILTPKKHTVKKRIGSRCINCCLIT

Compound: [O-][N+](C(C1=C(C(O)=C2)NC(C(C=C3)=CC=C3Cl)C4C1C=CC4)=C2Cl)=O
Assay: melting temperature shift (compound 7 minus DMSO); higher = compound stabilises the protein
Conditions: 10 µM
Description: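 Thermal proteome profiling (TMT mass spectrometry) in intact DAOY medulloblastoma cells or DAOY lysates treated with 10 µM compound 7 or DMSO, heated at 10 temperatures from 40.5 to 73.8 °C for 3 min. Melting curves were fitted with the Bioconductor TPP package, and the melting point difference between compound and vehicle is reported per protein (single curve per condition).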

[1] = system: DAOY cell lysate, treatment time: 20 min, 4 °C
[2] = system: intact DAOY cells, treatment time: 90 min, 37 °C

| Target | melting temperature shift [1] | melting temperature shift [2] |
| --- | --- | --- |
| KIF3B (UniProt O15066) | -0.594 °C | -0.649 °C |
| UniProt Q15035 | 1.26 °C | -3.12 °C |
| MCMBP (UniProt Q9BTE3) | -0.552 °C | -0.134 °C |
| EIF2B4 (UniProt Q9UI10) | 0.295 °C | -1.23 °C |
| CIAPIN1 (UniProt Q6FI81) | -0.245 °C | -0.00589 °C |
| UniProt Q9UI47 |  | -0.265 °C |
| DLAT (UniProt P10515) | 0.815 °C | 0.239 °C |
| VPS16 (UniProt Q9H269) | -0.727 °C | 0.249 °C |
| RRP1B (UniProt Q14684) | 0.658 °C |  |
| CUL5 (UniProt Q93034) | -0.732 °C | -0.841 °C |
| INPP5B (UniProt P32019) |  | 2.84 °C |
| IFRD2 (UniProt Q12894) | -2.37 °C |  |
| ZDHHC5 (UniProt Q9C0B5) |  | -2.56 °C |
| MGME1 (UniProt Q9BQP7) | -0.407 °C | -0.0517 °C |
| UniProt Q15669 |  | 0.196 °C |
| UBA1 (UniProt P22314) | -0.146 °C | 0.519 °C |
| BSG (UniProt P35613) | 4.56 °C |  |
| PIH1D1 (UniProt Q9NWS0) | -0.675 °C | 0.903 °C |
| UniProt Q9NSG2 | -2.38 °C |  |
| UniProt Q96FF9 | 0.746 °C |  |
| FIS1 (UniProt Q9Y3D6) | 0.644 °C |  |
| UniProt Q8WTT2 | 1.1 °C |  |
| PEX11B (UniProt O96011) | 0.0274 °C | 1.49 °C |

| Target | melting temperature shift [1] | melting temperature shift [2] |
| --- | --- | --- |
| CCNDBP1 (UniProt O95273) | -0.897 °C |  |
| UniProt Q9Y6X3 | 1.85 °C |  |
| INTS3 (UniProt Q68E01) | -0.309 °C | 1.98 °C |
| GTF2H3 (UniProt Q13889) | 0.126 °C |  |
| UniProt Q6NVV1 |  | -0.382 °C |
| RAPH1 (UniProt Q70E73) | -0.678 °C |  |
| TRIP11 (UniProt Q15643) | 0.676 °C | 0.528 °C |
| SMG1 (UniProt Q96Q15) | -0.862 °C | 0.222 °C |
| UniProt P59780 | -0.288 °C | -0.928 °C |
| MRPS11 (UniProt P82912) | 0.728 °C | 0.754 °C |
| PTPN9 (UniProt P43378) | -2.16 °C | -0.841 °C |
| PSMA2 (UniProt P25787) | 0.594 °C | 0.745 °C |
| CMC2 (UniProt Q9NRP2) | 1.99 °C |  |
| UGGT1 (UniProt Q9NYU2) | 0.563 °C | 0.324 °C |
| YWHAB (UniProt P31946) | -0.698 °C | 0.584 °C |
| UniProt Q99608 | -2.26 °C | -0.916 °C |
| MAP2K6 (UniProt P52564) |  | -0.548 °C |
| UniProt Q8IUS5 |  | -2.36 °C |
| UniProt Q6P474 |  | -0.791 °C |
| DCAF13 (UniProt Q9NV06) | -0.287 °C | -0.991 °C |
| FAM172A (UniProt Q8WUF8) | 0.98 °C | 0.0826 °C |
| NUP153 (UniProt P49790) | 0.188 °C | -0.611 °C |
| ID1 (UniProt P41134) | 0.367 °C |  |

| Target | melting temperature shift [1] | melting temperature shift [2] |
| --- | --- | --- |
| ADH5 (UniProt P11766) | -0.456 °C | 2.44 °C |
| UniProt Q9UBG0 | 1.22 °C | 0.703 °C |
| UniProt P19784 | -0.592 °C | -0.965 °C |
| PEX6 (UniProt Q13608) | 0.122 °C | 0.879 °C |
| NFYC (UniProt Q13952) | -0.216 °C | -0.324 °C |
| UniProt Q92845 | -2.98 °C | 0.885 °C |
| FXR2 (UniProt P51116) | 0.911 °C | 0.57 °C |
| UQCRC1 (UniProt P31930) | 2.29 °C | 0.823 °C |
| RBM15 (UniProt Q96T37) | -0.533 °C | 0.697 °C |
| DNAJC3 (UniProt Q13217) | 0.348 °C | 0.412 °C |
| MCUR1 (UniProt Q96AQ8) | 0.0847 °C | -0.315 °C |
| UniProt Q16773 | -1.53 °C | 3.46 °C |
| TOP1 (UniProt P11387) | 0.158 °C | -0.313 °C |
| PPAN (UniProt Q9NQ55) | 0.789 °C |  |
| GALNT2 (UniProt Q10471) | 1.38 °C | -0.648 °C |
| UniProt Q5BKY9 |  | -1.33 °C |
| EXOC7 (UniProt Q9UPT5) | 0.299 °C | -0.934 °C |
| USO1 (UniProt O60763) | -0.0782 °C | -0.573 °C |
| MYADM (UniProt Q96S97) | 2.07 °C |  |
| DDA1 (UniProt Q9BW61) | -1.42 °C | -4.19 °C |
| TSR2 (UniProt Q969E8) | 0.505 °C | 3.27 °C |
| C8ORF59 (UniProt Q8N0T1) | -0.609 °C | -0.573 °C |
| TRAPPC2L (UniProt Q9UL33) | -0.781 °C | -0.16 °C |

| Target | melting temperature shift [1] | melting temperature shift [2] |
| --- | --- | --- |
| FAM49B (UniProt Q9NUQ9) | -0.55 °C | -0.626 °C |
| UniProt O43347 |  | 0.282 °C |
| UniProt Q12841 | 0.883 °C |  |
| ELP2 (UniProt Q6IA86) | -0.00374 °C | -2.21 °C |
| RAI14 (UniProt Q9P0K7) | -0.697 °C | 0.577 °C |
| PIGU (UniProt Q9H490) | 0.54 °C | -1.94 °C |
| MRPL9 (UniProt Q9BYD2) | -0.743 °C | -0.891 °C |
| SLC25A19 (UniProt Q9HC21) |  | 1.52 °C |
| PLCB3 (UniProt Q01970) | 0.262 °C | 0.049 °C |
| GSDMD (UniProt P57764) | -0.313 °C | -1.68 °C |
| GNL1 (UniProt P36915) | 0.0743 °C | -1.11 °C |
| ERCC6L (UniProt Q2NKX8) | -0.814 °C | -0.514 °C |
| SLTM (UniProt Q9NWH9) | 0.973 °C | 0.245 °C |
| MRPL51 (UniProt Q4U2R6) | 0.418 °C | -1.86 °C |
| UniProt Q9UIS9 |  | 1.16 °C |
| IDH1 (UniProt O75874) | -0.499 °C | -1.67 °C |
| DLG1 (UniProt Q12959) | 1.05 °C | 0.0243 °C |
| ATM (UniProt Q13315) | -0.273 °C | -0.954 °C |
| UniProt Q8N8D1 |  | -1.46 °C |
| DCAF15 (UniProt Q66K64) | -1.11 °C | 0.897 °C |
| MRPL32 (UniProt Q9BYC8) | 0.782 °C | -0.0442 °C |
| DPF2 (UniProt Q92785) | -1.2 °C | 0.766 °C |
| MVK (UniProt Q03426) | -0.373 °C | -0.106 °C |

| Target | melting temperature shift [1] | melting temperature shift [2] |
| --- | --- | --- |
| UniProt Q99717 | -4.45 °C |  |
| ATP6AP1 (UniProt Q15904) | 0.252 °C | 0.345 °C |
| ARFGEF1 (UniProt Q9Y6D6) | -0.822 °C | -0.789 °C |
| PPIL4 (UniProt Q8WUA2) | -0.357 °C | -0.274 °C |
| EPS15L1 (UniProt Q9UBC2) | -0.154 °C | 0.259 °C |
| ACBD5 (UniProt Q5T8D3) | 1.13 °C | -0.377 °C |
| MED12 (UniProt Q93074) | -0.765 °C |  |
| HNRNPA2B1 (UniProt P22626) | 0.975 °C | -0.806 °C |
| UniProt P00846 | 0.412 °C | -0.692 °C |
| PPIF (UniProt P30405) | 0.46 °C | -0.00289 °C |
| AP5Z1 (UniProt O43299) | -0.91 °C | -0.38 °C |
| UniProt Q9UNL4 | -1.83 °C |  |
| UniProt Q8ND76 | 3.35 °C |  |
| WDR73 (UniProt Q6P4I2) |  | -0.208 °C |
| OXSM (UniProt Q9NWU1) | 0.306 °C | -0.255 °C |
| UniProt P41212 | 0.0877 °C |  |
| UniProt P17081 |  | -2.07 °C |
| ATG9A (UniProt Q7Z3C6) | -1.03 °C | 0.147 °C |
| PRMT5 (UniProt O14744) | -0.347 °C | -1.53 °C |
| HP1BP3 (UniProt Q5SSJ5) | -0.0401 °C | 0.0163 °C |
| FAM114A1 (UniProt Q8IWE2) | -0.927 °C | 0.442 °C |
| GRWD1 (UniProt Q9BQ67) | -0.134 °C | 0.589 °C |
